In the supplement of paper PMC8728848:
The other results are listed elsewhere or left out.

What was measured:
Experiment in all cases: glycan array binding signal (z-score within array); higher = stronger binding
Settings in all cases: glycan notation: IUPAC condensed, linker removed
Gal(b1-4)Glc = molecular target: Gal(b1-4)Glc
Procedure, shortened: (§1)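 Columns mapping to the same glycan were averaged after glycan names were converted to IUPAC-condensed notation. The data come from 3228 arrays in the Consortium for Functional Glycomics database, limited to those with an available protein sequence. Binding is reported as a within-array Z-score averaged across arrays of one protein sequence and across linkers.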

Gal(b1-4)Glc6S = molecular target: Gal(b1-4)Glc6S
Procedure, shortened: as §1

Gal(b1-4)GlcNAc = molecular target: Gal(b1-4)GlcNAc
Procedure, shortened: as §1

[1] = molecular target: Gal(b1-4)GlcNAc(a1-6)Gal(b1-4)GlcNAc
Procedure, shortened: as §1

Gal(b1-4)GlcNAc(b1-2)Man = molecular target: Gal(b1-4)GlcNAc(b1-2)Man
Procedure, shortened: as §1

[2] = molecular target: Gal(b1-4)GlcNAc(b1-2)Man(a1-3)Man(b1-4)GlcNAc(b1-4)GlcNAc
Procedure, shortened: as §1

[3] = molecular target: Gal(b1-4)GlcNAc(b1-2)Man(a1-3)[Gal(b1-4)GlcNAc(b1-2)Man(a1-6)]Man(b1-4)GlcNAc(b1-4)GlcNAc
Procedure, shortened: as §1

[4] = molecular target: Gal(b1-4)GlcNAc(b1-2)Man(a1-3)[Gal(b1-4)GlcNAc(b1-2)Man(a1-6)]Man(b1-4)GlcNAc(b1-4)[Fuc(a1-6)]GlcNAc
Procedure, shortened: as §1

[5] = molecular target: Gal(b1-4)GlcNAc(b1-2)Man(a1-3)[Gal(b1-4)GlcNAc(b1-2)Man(a1-6)][Gal(b1-4)GlcNAc(b1-4)]Man(b1-4)GlcNAc(b1-4)[Fuc(a1-6)]GlcNAc
Procedure, shortened: as §1

[6] = molecular target: Gal(b1-4)GlcNAc(b1-2)Man(a1-3)[Gal(b1-4)GlcNAc(b1-2)Man(a1-6)][GlcNAc(b1-4)]Man(b1-4)GlcNAc(b1-4)[Fuc(a1-6)]GlcNAc
Procedure, shortened: as §1

[7] = molecular target: Gal(b1-4)GlcNAc(b1-2)Man(a1-3)[GlcNAc(b1-2)Man(a1-6)]Man(b1-4)GlcNAc(b1-4)GlcNAc
Procedure, shortened: as §1

[8] = molecular target: Gal(b1-4)GlcNAc(b1-2)Man(a1-3)[GlcNAc(b1-4)][Gal(b1-4)GlcNAc(b1-2)Man(a1-6)]Man(b1-4)GlcNAc(b1-4)GlcNAc
Procedure, shortened: as §1

[9] = molecular target: Gal(b1-4)GlcNAc(b1-2)Man(a1-3)[Man(a1-6)]Man(b1-4)GlcNAc(b1-4)GlcNAc
Procedure, shortened: as §1

[10] = molecular target: Gal(b1-4)GlcNAc(b1-2)Man(a1-6)Man(b1-4)GlcNAc(b1-4)GlcNAc
Procedure, shortened: as §1

[11] = molecular target: Gal(b1-4)GlcNAc(b1-2)Man(a1-6)[GlcNAc(b1-2)Man(a1-3)]Man(b1-4)GlcNAc(b1-4)GlcNAc
Procedure, shortened: as §1

[12] = molecular target: Gal(b1-4)GlcNAc(b1-2)Man(a1-6)[Man(a1-3)]Man(b1-4)GlcNAc(b1-4)GlcNAc
Procedure, shortened: as §1

[13] = molecular target: Gal(b1-4)GlcNAc(b1-2)[Gal(b1-4)GlcNAc(b1-4)]Man(a1-3)[Gal(b1-4)GlcNAc(b1-2)Man(a1-6)]Man(b1-4)GlcNAc(b1-4)GlcNAc
Procedure, shortened: as §1

[14] = molecular target: Gal(b1-4)GlcNAc(b1-2)[Gal(b1-4)GlcNAc(b1-4)]Man(a1-3)[Gal(b1-4)GlcNAc(b1-2)[Gal(b1-4)GlcNAc(b1-6)]Man(a1-6)]Man(b1-4)GlcNAc(b1-4)GlcNAc
Procedure, shortened: as §1

[15] = molecular target: Gal(b1-4)GlcNAc(b1-2)[Gal(b1-4)GlcNAc(b1-4)]Man(a1-3)[GlcNAc(b1-4)][Gal(b1-4)GlcNAc(b1-2)Man(a1-6)]Man(b1-4)GlcNAc(b1-4)GlcNAc
Procedure, shortened: as §1

[16] = molecular target: Gal(b1-4)GlcNAc(b1-2)[Gal(b1-4)GlcNAc(b1-4)]Man(a1-3)[GlcNAc(b1-4)][Gal(b1-4)GlcNAc(b1-2)[Gal(b1-4)GlcNAc(b1-6)]Man(a1-6)]Man(b1-4)GlcNAc(b1-4)GlcNAc
Procedure, shortened: as §1

[17] = molecular target: Gal(b1-4)GlcNAc(b1-2)[Gal(b1-4)GlcNAc(b1-6)]Man(a1-6)[Gal(b1-4)GlcNAc(b1-2)Man(a1-3)]Man(b1-4)GlcNAc(b1-4)GlcNAc
Procedure, shortened: as §1

[18] = molecular target: Gal(b1-4)GlcNAc(b1-2)[Gal(b1-4)GlcNAc(b1-6)]Man(a1-6)[Gal(b1-4)GlcNAc(b1-2)Man(a1-3)]Man(b1-4)GlcNAc(b1-4)[Fuc(a1-6)]GlcNAc
Procedure, shortened: as §1

[19] = molecular target: Gal(b1-4)GlcNAc(b1-2)[Gal(b1-4)GlcNAc(b1-6)]Man(a1-6)[GlcNAc(b1-4)][Gal(b1-4)GlcNAc(b1-2)Man(a1-3)]Man(b1-4)GlcNAc(b1-4)GlcNAc
Procedure, shortened: as §1

[20] = molecular target: Gal(b1-4)GlcNAc(b1-2)[Gal(b1-4)GlcNAc(b1-6)]Man(a1-6)[GlcNAc(b1-4)][Gal(b1-4)GlcNAc(b1-2)[Gal(b1-4)GlcNAc(b1-4)]Man(a1-3)]Man(b1-4)GlcNAc(b1-4)[Fuc(a1-6)]GlcNAc
Procedure, shortened: as §1

[21] = molecular target: Gal(b1-4)GlcNAc(b1-3)Gal(b1-3)GalNAc
Procedure, shortened: as §1

[22] = molecular target: Gal(b1-4)GlcNAc(b1-3)Gal(b1-3)GlcNAc
Procedure, shortened: as §1

[23] = molecular target: Gal(b1-4)GlcNAc(b1-3)Gal(b1-4)Glc
Procedure, shortened: as §1

[24] = molecular target: Gal(b1-4)GlcNAc(b1-3)Gal(b1-4)GlcNAc
Procedure, shortened: as §1

[25] = molecular target: Gal(b1-4)GlcNAc(b1-3)Gal(b1-4)GlcNAc(b1-2)Man(a1-3)[Gal(b1-4)GlcNAc(b1-3)Gal(b1-4)GlcNAc(b1-2)Man(a1-6)]Man(b1-4)GlcNAc(b1-4)GlcNAc
Procedure, shortened: as §1

[26] = molecular target: Gal(b1-4)GlcNAc(b1-3)Gal(b1-4)GlcNAc(b1-2)Man(a1-3)[Gal(b1-4)GlcNAc(b1-3)Gal(b1-4)GlcNAc(b1-2)Man(a1-6)]Man(b1-4)GlcNAc(b1-4)[Fuc(a1-6)]GlcNAc
Procedure, shortened: as §1

[27] = molecular target: Gal(b1-4)GlcNAc(b1-3)Gal(b1-4)GlcNAc(b1-2)[Gal(b1-4)GlcNAc(b1-3)Gal(b1-4)GlcNAc(b1-6)]Man(a1-6)[Gal(b1-4)GlcNAc(b1-3)Gal(b1-4)GlcNAc(b1-2)Man(a1-3)]Man(b1-4)GlcNAc(b1-4)GlcNAc
Procedure, shortened: as §1

[28] = molecular target: Gal(b1-4)GlcNAc(b1-3)Gal(b1-4)GlcNAc(b1-2)[Gal(b1-4)GlcNAc(b1-3)Gal(b1-4)GlcNAc(b1-6)]Man(a1-6)[Gal(b1-4)GlcNAc(b1-3)Gal(b1-4)GlcNAc(b1-2)Man(a1-3)]Man(b1-4)GlcNAc(b1-4)[Fuc(a1-6)]GlcNAc
Procedure, shortened: as §1

[29] = molecular target: Gal(b1-4)GlcNAc(b1-3)Gal(b1-4)GlcNAc(b1-3)Gal(b1-4)GlcNAc
Procedure, shortened: as §1

[30] = molecular target: Gal(b1-4)GlcNAc(b1-3)Gal(b1-4)GlcNAc(b1-3)Gal(b1-4)GlcNAc(b1-2)Man(a1-3)[Gal(b1-4)GlcNAc(b1-3)Gal(b1-4)GlcNAc(b1-3)Gal(b1-4)GlcNAc(b1-2)Man(a1-6)]Man(b1-4)GlcNAc(b1-4)GlcNAc
Procedure, shortened: as §1

[31] = molecular target: Gal(b1-4)GlcNAc(b1-3)Gal(b1-4)GlcNAc(b1-3)Gal(b1-4)GlcNAc(b1-2)Man(a1-3)[Gal(b1-4)GlcNAc(b1-3)Gal(b1-4)GlcNAc(b1-3)Gal(b1-4)GlcNAc(b1-2)Man(a1-6)]Man(b1-4)GlcNAc(b1-4)[Fuc(a1-6)]GlcNAc
Procedure, shortened: as §1

[32] = molecular target: Gal(b1-4)GlcNAc(b1-3)Gal(b1-4)GlcNAc(b1-3)Gal(b1-4)GlcNAc(b1-2)[Gal(b1-4)GlcNAc(b1-3)Gal(b1-4)GlcNAc(b1-3)Gal(b1-4)GlcNAc(b1-6)]Man(a1-6)[Gal(b1-4)GlcNAc(b1-3)Gal(b1-4)GlcNAc(b1-3)Gal(b1-4)GlcNAc(b1-2)Man(a1-3)]Man(b1-4)GlcNAc(b1-4)[Fuc(a1-6)]GlcNAc
Procedure, shortened: as §1

[33] = molecular target: Gal(b1-4)GlcNAc(b1-3)Gal(b1-4)GlcNAc(b1-3)Gal(b1-4)GlcNAc(b1-3)Gal(b1-4)GlcNAc(b1-2)Man(a1-3)[Gal(b1-4)GlcNAc(b1-3)Gal(b1-4)GlcNAc(b1-3)Gal(b1-4)GlcNAc(b1-3)Gal(b1-4)GlcNAc(b1-2)Man(a1-6)]Man(b1-4)GlcNAc(b1-4)GlcNAc
Procedure, shortened: as §1

B1: SAOUHSC 02783 (Staphylococcus aureus), Q5HD69 (protein)
chain: MIHSKKLTLGICLVLLIILIVGYVIMTKTNGRNAQIKDTFNQTLKLYPTKNLDDFYDKEGFRDQEFKKGDKGTWIVNSEMVIEPKGKDMETRGMVLYINRNTRTTKGYYFISEMTDDSNGRPKDDEKRYPVKMEHNKIIPTKPLPNDKLKKEIENFKFFVQYGNFKDINDYKDGDISYNPNVPSYSAKYQLNNDDYNVQQLRKRYDIPTKQAPKLLLKGDGDLKGSSVGSRSLEFTFVENKEENIYFTDSVQYTPSEDTRYESN
glycan array binding signal (z-score) (Gal(b1-4)Glc): 0.097 | glycan array binding signal (z-score) (Gal(b1-4)Glc6S): 0.097 | glycan array binding signal (z-score) (Gal(b1-4)GlcNAc): 0.088 | glycan array binding signal (z-score) [1]: -0.738 | glycan array binding signal (z-score) (Gal(b1-4)GlcNAc(b1-2)Man): 1.27 | glycan array binding signal (z-score) [2]: 0.093 | glycan array binding signal (z-score) [3]: -1.22 | glycan array binding signal (z-score) [4]: -0.82 | glycan array binding signal (z-score) [5]: 0.178 | glycan array binding signal (z-score) [6]: -0.077 | glycan array binding signal (z-score) [7]: 0.018 | glycan array binding signal (z-score) [8]: 0.438 | glycan array binding signal (z-score) [9]: 5.18 | glycan array binding signal (z-score) [10]: 0.151 | glycan array binding signal (z-score) [11]: 0.066 | glycan array binding signal (z-score) [12]: -0.93 | glycan array binding signal (z-score) [13]: 0.614 | glycan array binding signal (z-score) [14]: -1.06 | glycan array binding signal (z-score) [15]: -0.099 | glycan array binding signal (z-score) [16]: -0.31 | glycan array binding signal (z-score) [17]: -0.847 | glycan array binding signal (z-score) [18]: 0.542 | glycan array binding signal (z-score) [19]: 0.044 | glycan array binding signal (z-score) [20]: -0.197 | glycan array binding signal (z-score) [21]: -0.665 | glycan array binding signal (z-score) [22]: -1.42 | glycan array binding signal (z-score) [23]: -0.187 | glycan array binding signal (z-score) [24]: 0.039 | glycan array binding signal (z-score) [25]: 2.58 | glycan array binding signal (z-score) [26]: -0.335 | glycan array binding signal (z-score) [27]: 0.532 | glycan array binding signal (z-score) [28]: -1.48 | glycan array binding signal (z-score) [29]: -0.386 | glycan array binding signal (z-score) [30]: 1.11 | glycan array binding signal (z-score) [31]: 0.271 | glycan array binding signal (z-score) [32]: -0.075 | glycan array binding signal (z-score) [33]: 0.31
